{"source": "patent US20030108935", "about": "“Probing binding interactions between molecules and nucleic acids by unzipping a nucleic acid molecule double helix” (published 2003)", "tested_on": "XhoI restriction endonuclease", "test": "binding assay", "settings": "optical-trap unzipping, dynamic force spectroscopy: f_beta 3.20 +/- 0.30 pN, ln(toff in s) 9.9 +/- 1.1, N=41; XhoI 4.6 nM, 50 mM Na phosphate pH 7.0, 50 mM …; purified recombinant protein", "note": "The exact form of at least one protein or probe is not confirmed.", "data": [{"sequence": "AAACTCGAGAGA (double strand) [beta site (BsoBI/XhoI)]", "values": [{"measurement": "binding result", "result": "binds"}]}]}
